According to KR20220001106A:

Experiments:
[1] = target: FcγRⅡ (R&D system, 1597-CF); experiment: Octet BLI, receptor on anti-penta-His sensor, antibody 100 nM as analyte
[2] = target: FcγRⅢ (R&D system, 1257-Fc); experiment: as above

B1: Hz2-F (antibody with SEQ ID NO 32 and SEQ ID NO 31) (antibody, human IgG1, L234A L235A, V domains shown)
VH: EVQLVESGGGLVQPGGSLRLSCAVSGIDLNRYSLTWIRQAPGKGLEWVAIVGGSGVTYYANWAKGRFTISRDDSKNTLYLQMNSLRAEDTAVYYCARGSDRSAYAPDIWGQGTLVTVSS
VL: DIQLTQSPSSLSASVGDRVTITCQSSQSIYSNNYLAWYQQKPGKAPKLLLYQASKLASGVPSRFSGSGSGTDFTLTISSLQPEDFATYYCLGVYDDDADNAFGQGTKVEIKR
[1]
  binding: binds
[2]
  binding: binds

These are yes or no findings as the source states them, for the method shown. Binding can be weak; no strength is given.
